# Results: the supplement of paper PMC8728848
# The list shows a part of the results.
# Experiments:
# Test in all cases: glycan array binding signal (z-score within array); higher = stronger binding
# Settings in all cases: glycan notation: IUPAC condensed, linker removed
# [1] = target: Fuc(a1-2)Gal
# Outline: (§1)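 The binding signal is a Z-score computed within each array. Data were drawn from 3228 arrays in the Consortium for Functional Glycomics database, restricted to those with a known protein sequence. Scores were averaged over arrays of the same protein sequence at different concentrations or buffers, and over linkers, and negative values can be taken as non-binding.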
# [2] = target: Fuc(a1-2)Gal(b1-3)GalNAc
# Outline: as §1
# [3] = target: Fuc(a1-2)Gal(b1-3)GalNAc(a1-3)[Fuc(a1-2)]Gal(b1-4)Glc
# Outline: as §1
# [4] = target: Fuc(a1-2)Gal(b1-3)GalNAc(a1-3)[Fuc(a1-2)]Gal(b1-4)GlcNAc
# Outline: as §1
# [5] = target: Fuc(a1-2)Gal(b1-3)GalNAc(b1-3)Gal
# Outline: as §1
# [6] = target: Fuc(a1-2)Gal(b1-3)GalNAc(b1-3)Gal(a1-4)Gal(b1-4)Glc
# Outline: as §1
# [7] = target: Fuc(a1-2)Gal(b1-3)GalNAc(b1-4)[Neu5Ac(a2-3)]Gal(b1-4)Glc
# Outline: as §1
# [8] = target: Fuc(a1-2)Gal(b1-3)GlcNAc
# Outline: as §1
# [9] = target: Fuc(a1-2)Gal(b1-3)GlcNAc(b1-2)Man(a1-3)[Fuc(a1-2)Gal(b1-3)GlcNAc(b1-2)Man(a1-6)]Man(b1-4)GlcNAc(b1-4)GlcNAc
# Outline: as §1
# [10] = target: Fuc(a1-2)Gal(b1-3)GlcNAc(b1-2)Man(a1-3)[Fuc(a1-2)Gal(b1-3)GlcNAc(b1-2)Man(a1-6)]Man(b1-4)GlcNAc(b1-4)[Fuc(a1-6)]GlcNAc
# Outline: as §1
# [11] = target: Fuc(a1-2)Gal(b1-3)GlcNAc(b1-3)Gal(b1-4)Glc
# Outline: as §1
# [12] = target: Fuc(a1-2)Gal(b1-3)GlcNAc(b1-3)GalNAc
# Outline: as §1
# [13] = target: Fuc(a1-2)Gal(b1-3)GlcNAc(b1-3)[Fuc(a1-2)Gal(b1-3)GlcNAc(b1-6)]GalNAc
# Outline: as §1
# [14] = target: Fuc(a1-2)Gal(b1-3)GlcNAc(b1-3)[Gal(b1-4)GlcNAc(b1-6)]Gal(b1-4)Glc
# Outline: as §1
# [15] = target: Fuc(a1-2)Gal(b1-3)GlcNAc(b1-3)[Neu5Ac(a2-6)Gal(b1-4)GlcNAc(b1-6)]Gal(b1-4)Glc
# Outline: as §1
# [16] = target: Fuc(a1-2)Gal(b1-3)GlcNAc6S
# Outline: as §1
# [17] = target: Fuc(a1-2)Gal(b1-3)[Fuc(a1-4)]GlcNAc
# Outline: as §1
# [18] = target: Fuc(a1-2)Gal(b1-3)[Fuc(a1-4)]GlcNAc(b1-2)Man(a1-3)[Fuc(a1-2)Gal(b1-3)[Fuc(a1-4)]GlcNAc(b1-2)Man(a1-3)]Man(b1-4)GlcNAc(b1-4)GlcNAc
# Outline: as §1
# [19] = target: Fuc(a1-2)Gal(b1-3)[Fuc(a1-4)]GlcNAc(b1-2)Man(a1-3)[Fuc(a1-2)Gal(b1-3)[Fuc(a1-4)]GlcNAc(b1-2)Man(a1-6)]Man(b1-4)GlcNAc(b1-4)[Fuc(a1-6)]GlcNAc(b1-4)[Fuc(a1-6)]GlcNAc
# Outline: as §1
# [20] = target: Fuc(a1-2)Gal(b1-3)[Fuc(a1-4)]GlcNAc(b1-3)[Fuc(a1-3)[Gal(b1-4)]GlcNAc(b1-6)]Gal(b1-4)Glc
# Outline: as §1
# [21] = target: Fuc(a1-2)Gal(b1-3)[Fuc(a1-4)]GlcNAc(b1-3)[Gal(b1-4)GlcNAc(b1-6)]Gal(b1-4)Glc
# Outline: as §1
# [22] = target: Fuc(a1-2)Gal(b1-4)Fuc(a1-3)]GlcNAc(b1-2)Man(a1-3)[Fuc(a1-2)Gal(b1-4)[Fuc(a1-3)]GlcNAc(b1-2)Man(a1-6)]Man(b1-4)GlcNAc(b1-4)GlcNAc
# Outline: as §1
# [23] = target: Fuc(a1-2)Gal(b1-4)Glc
# Outline: as §1
# [24] = target: Fuc(a1-2)Gal(b1-4)Glc6S
# Outline: as §1
# [25] = target: Fuc(a1-2)Gal(b1-4)GlcNAc
# Outline: as §1
# [26] = target: Fuc(a1-2)Gal(b1-4)GlcNAc(b1-2)Man
# Outline: as §1
# [27] = target: Fuc(a1-2)Gal(b1-4)GlcNAc(b1-2)Man(a1-3)[Fuc(a1-2)Gal(b1-4)GlcNAc(b1-2)Man(a1-6)]Man(b1-4)GlcNAc(b1-4)GlcNAc
# Outline: as §1
# [28] = target: Fuc(a1-2)Gal(b1-4)GlcNAc(b1-2)Man(a1-3)[Fuc(a1-2)Gal(b1-4)GlcNAc(b1-2)Man(a1-6)]Man(b1-4)GlcNAc(b1-4)[Fuc(a1-6)]GlcNAc
# Outline: as §1
# [29] = target: Fuc(a1-2)Gal(b1-4)GlcNAc(b1-2)[Fuc(a1-2)Gal(b1-4)GlcNAc(b1-4)]Man(a1-3)[Fuc(a1-2)Gal(b1-4)GlcNAc(b1-2)Man(a1-6)]Man(b1-4)GlcNAc(b1-4)GlcNAc
# Outline: as §1
# [30] = target: Fuc(a1-2)Gal(b1-4)GlcNAc(b1-3)Gal(b1-4)GlcNAc
# Outline: as §1
# [31] = target: Fuc(a1-2)Gal(b1-4)GlcNAc(b1-3)Gal(b1-4)GlcNAc(b1-2)Man(a1-3)[Fuc(a1-2)Gal(b1-4)GlcNAc(b1-3)Gal(b1-4)GlcNAc(b1-2)Man(a1-6)]Man(b1-4)GlcNAc(b1-4)GlcNAc
# Outline: as §1
# [32] = target: Fuc(a1-2)Gal(b1-4)GlcNAc(b1-3)Gal(b1-4)GlcNAc(b1-3)Gal(b1-4)GlcNAc
# Outline: as §1
# [33] = target: Fuc(a1-2)Gal(b1-4)GlcNAc(b1-3)GalNAc
# Outline: as §1
# [34] = target: Fuc(a1-2)Gal(b1-4)GlcNAc(b1-3)[Fuc(a1-2)Gal(b1-4)GlcNAc(b1-6)]GalNAc
# Outline: as §1
# [35] = target: Fuc(a1-2)Gal(b1-4)GlcNAc(b1-3)[Fuc(a1-3)[Gal(b1-4)]GlcNAc(b1-6)]Gal(b1-4)Glc
# Outline: as §1
# [36] = target: Fuc(a1-2)Gal(b1-4)GlcNAc(b1-6)GalNAc
# Outline: as §1
# [37] = target: Fuc(a1-2)Gal(b1-4)GlcNAc6S
# Outline: as §1
binder,measurement,setting,value
MUB70 (Lactobacillus reuteri) (protein) CVHVQYIDGETDQMLRQDDLDGYTDETIPYSTAEGIKKFEGDGYELFKDNFPAGEKFDNDDTNDQFYTVIF,glycan array binding signal (z-score),[1],0.151
same,glycan array binding signal (z-score),[2],-0.543
same,glycan array binding signal (z-score),[3],-0.708
same,glycan array binding signal (z-score),[4],0.081
same,glycan array binding signal (z-score),[5],0.156
same,glycan array binding signal (z-score),[6],-0.34
same,glycan array binding signal (z-score),[7],-0.592
same,glycan array binding signal (z-score),[8],-0.448
same,glycan array binding signal (z-score),[9],-0.679
same,glycan array binding signal (z-score),[10],-0.229
same,glycan array binding signal (z-score),[11],-0.29
same,glycan array binding signal (z-score),[12],0.169
same,glycan array binding signal (z-score),[13],0.173
same,glycan array binding signal (z-score),[14],0.656
same,glycan array binding signal (z-score),[15],0.115
same,glycan array binding signal (z-score),[16],-0.415
same,glycan array binding signal (z-score),[17],0.563
same,glycan array binding signal (z-score),[18],-0.048
same,glycan array binding signal (z-score),[19],1.08
same,glycan array binding signal (z-score),[20],0.354
same,glycan array binding signal (z-score),[21],0.024
same,glycan array binding signal (z-score),[22],0.344
same,glycan array binding signal (z-score),[23],-0.898
same,glycan array binding signal (z-score),[24],-0.001
same,glycan array binding signal (z-score),[25],-0.384
same,glycan array binding signal (z-score),[26],0.231
same,glycan array binding signal (z-score),[27],-0.781
same,glycan array binding signal (z-score),[28],-0.62
same,glycan array binding signal (z-score),[29],-0.532
same,glycan array binding signal (z-score),[30],-0.781
same,glycan array binding signal (z-score),[31],0.338
same,glycan array binding signal (z-score),[32],0.045
same,glycan array binding signal (z-score),[33],0.04
same,glycan array binding signal (z-score),[34],-0.208
same,glycan array binding signal (z-score),[35],0.671
same,glycan array binding signal (z-score),[36],0.153
same,glycan array binding signal (z-score),[37],0.29

# Reformatted bar-delimited: entries from further up.
binder | measurement | setting | value
MUB70 (Lactobacillus reuteri) (protein) CVHVQYIDGETDQMLRQDDLDGYTDETIPYSTAEGIKKFEGDGYELFKDNFPAGEKFDNDDTNDQFYTVIF | glycan array binding signal (z-score) | [1] | 0.151
same | glycan array binding signal (z-score) | [26] | 0.231
